Library compounds against nucleic acid targets

Targets, with sequences 5′ to 3′:
PreQ1: PreQ1 riboswitch RNA pseudoknot, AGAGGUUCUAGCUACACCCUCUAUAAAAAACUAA. From B. subtilis. About 24,000 compounds screened, about 170 hits.
SAM-II: SAM-II riboswitch RNA pseudoknot, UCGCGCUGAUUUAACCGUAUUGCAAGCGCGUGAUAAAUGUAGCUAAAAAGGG. About 21,000 compounds screened, about 200 hits.
TPP: TPP riboswitch RNA three-way junction, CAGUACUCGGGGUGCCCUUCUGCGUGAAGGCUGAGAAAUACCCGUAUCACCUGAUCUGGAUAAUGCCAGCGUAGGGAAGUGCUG. About 24,000 compounds screened, about 160 hits.

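The test is a small-molecule microarray: each compound is printed twice on a reactive slide, and binding shows as fluorescence of the labelled oligonucleotide after washing. For the PreQ1, TPP and SAM-II riboswitches the laboratory earlier reported (doi:10.1038/s41467-019-09493-3) 1 µM RNA, 2 h, and a rule that included a mean Z-score above 3 (spot signal-to-noise against the whole library), a score well above that on a control array, and duplicate spots agreeing (coefficient of variation under 100). The data file gives only the calls; its cut-offs may differ, and compounds hitting several targets are kept. These are primary screening calls, not affinities; a compound without a hit may have attached poorly or may still bind in solution.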 “Y” means called a hit, “N” means screened and not called a hit. This is an unselected part of the compounds tested. A dash means that no call is listed here.

| SMILES | PreQ1 | SAM-II | TPP |
|---|---|---|---|
| `Clc1cccc(N2CCN(CCNc3nc4ccccc4n4cnnc34)CC2)c1` | N | N | N |
| `COc1ccc(CNCc2ccc(OC)c(OC)c2)cc1C` | N | N | N |
| `CC(C)CNc1nc(Oc2ccc(=O)n(C)n2)nc(N2CCOCC2)n1` | N | N | N |
| `O=C1CC(N2CCOCC2)C=C1Nc1ccccc1` (centres unmarked) | N | N | N |
| `Cc1cc(-c2ccccc2)n(-c2cc(Nc3ccccc3)ncn2)n1` | N | N | N |
| `CCOc1ccc(Nc2ncnc3c2nc2n3CCCCC2)cc1` | N | - | N |
| `Cc1cc(Nc2ccc(N(C)C)cc2)c2cccc(C)c2n1` | N | N | N |
| `CCOC(=O)C1CCN(CC(O)COc2cccc(OC)c2)CC1.Cl` (centres unmarked) | N | N | N |
| `Nc1nc(=O)c(/N=N/c2ccc(S(N)(=O)=O)cc2)c(N)[nH]1` | N | N | N |
| `COCc1noc(CCNC(=O)CCc2cc3n(n2)CCNC3)n1` | N | N | N |
| `COc1ccc(-c2nc3cc(N)ccc3o2)cc1OC` | N | N | N |
| `Cc1ccc(-c2c(Nc3ccc(C)c(Cl)c3)c(=O)c2=O)cc1C` | N | - | N |
| `Cc1nc(C2CCNCC2)cc(N2CCC(C(=O)NCc3ccco3)CC2)n1` | N | N | N |
| `C=CCNCC#CCOc1ccc(CC)cc1` | N | Y | N |
| `NCCSC1CC(=O)N(c2ccccc2)C1=O` (centres unmarked) | N | N | N |
| `Cc1cc(C(=O)Oc2ccccc2NC2=NS(=O)(=O)c3ccccc32)c2ccccc2n1` | N | N | N |
| `COc1cccc(CNCc2ccc(C(=O)O)s2)c1OC` | N | - | N |
| `COC(=O)[C@]1(C)N[C@H](c2c(C)noc2C)[C@@H]2C(=O)N(C)C(=O)[C@@H]21` | N | N | N |
| `Clc1ccc2nc(Nc3ccc(Br)cc3)c3nncn3c2c1` | N | - | N |
| `Cc1nccc2c1[nH]c1cc(O)ccc12` | N | N | N |
| `COCCN1C(=O)[C@H]2CC[C@@H]1CN(C(=O)c1ccc(SCCO)cc1)C2` | N | N | N |
| `CCOC(=O)c1nc(Nc2ccccc2C)c2ccccc2n1` | N | N | N |
| `Nc1ccc(-c2cnn(Cc3ccccc3)c2)nc1` | N | N | N |
| `CN1C(=O)C2(C(C#N)=C(N)OC3=C2C(=O)CCC3)c2ccccc21` (centres unmarked) | N | N | N |
| `CC(C)n1c(C(O)c2cccc3ccccc23)nc2ccccc21` (centres unmarked) | N | N | N |
| `Cc1cc2nc(-c3ccc(N)cc3)oc2cc1C` | N | N | N |
| `NC(=O)c1ccc(N2CC[C@@H](c3ccc4ccccc4c3)[C@H](O)C2)nc1` | N | N | N |
| `CC1(C)CC(=O)C=C(Nc2ccc(C(=O)O)cc2)C1` | N | N | N |
| `O=C1NC2(CCNCC2)C(=O)N1CCCCOCc1ccccc1` | N | N | N |
| `OCCCc1nc2ccccc2n1CC1CCCCC1` | N | N | N |
| `CCc1nn(C)c(Cl)c1CN1CC[C@H](CO)[C@@H](O)C1` | N | N | N |
| `CCOC(=O)c1cnc2c(C)c(Cl)ccc2c1Nc1ccc(C(=O)OC)cc1` | N | N | N |
| `CCOc1ccc(Br)cc1CNC1CN2CCC1CC2` (centres unmarked) | N | N | N |
| `O=C1N(CC2CCCCC2)CCCC1(O)CNCc1cc2cc(F)ccc2[nH]1` (centres unmarked) | N | N | N |
| `Cc1cc(C)cc(CSCC(=O)N2C[C@@H](N)C[C@H]2C(=O)O)c1` | N | N | N |
| `Cc1ccc2nc(CNC(C)c3cn4ncsc4n3)cc(O)c2c1` (centres unmarked) | N | N | N |
| `CC(C)Oc1ccc(CN2CCN3C(=O)CN(C)C(=O)C3C2)cc1CO` (centres unmarked) | N | N | N |
| `CCN1CCN(C(=O)Cc2ccc(Nc3ncc(F)c(Nc4ccc(C(=O)Nc5ccccc5Cl)cc4)n3)cc2)CC1` | N | N | N |
| `COC(=O)CN1C(=O)C2(C(C#N)=C(N)Oc3c2c(C)nn3-c2cccc(Cl)c2)c2ccccc21` (centres unmarked) | N | N | N |
| `CC(C)Oc1ccc2c(=O)c(-c3ccccc3)coc2c1` | N | N | N |
| `Cc1nc2c(c(Nc3cccc(Cl)c3)n1)CCC2` | N | - | N |
| `c1ccc(CN2CCC(NCc3nc(C4CCCCC4)no3)CC2)cc1` | N | N | N |
| `COc1ccccc1CCC(=O)N1CC[C@@H]2[C@@H](CCC(=O)N2CCN)C1` | N | N | N |
| `Cn1ccnc1C(O)C1CCN(C(=O)Nc2cccc3nsnc23)CC1` (centres unmarked) | N | N | N |
| `CCc1c(C)nc(N)nc1N(C)CCC(N)=O` | N | N | N |
| `c1cn(Cc2ncc3c(n2)CCC3)c(-c2cc3n(n2)CCNC3)n1` | N | N | N |
| `O=C(c1ccccc1)N1CCC(NCc2ccc3sccc3c2)CC1` | N | N | N |
| `Nc1nc2c(c(N3CCCC(OCc4ccccc4)C3)n1)CCNCC2` (centres unmarked) | N | N | N |
| `CCOC(=O)N1CCN(CC(O)COc2cc(C)c(Cl)c(C)c2)CC1.Cl` (centres unmarked) | N | N | N |
| `CSc1ncccc1C(=O)N(C)CC1(CO)CCOCC1` | N | N | N |
| `N[C@H]1CC[C@@H](n2cc(C(=O)NC3COc4ccccc4C3)nn2)CC1` (some centres unmarked) | N | N | N |
| `CCc1nc(N)sc1C(=O)N1CCCC(c2nccn2CC(N)=O)C1` (centres unmarked) | N | N | N |
| `CCOC(=O)C(Nc1cc2oc3ccccc3c2cc1OC)c1ccccc1` (centres unmarked) | N | N | N |
| `CCOC(=O)c1ccc2ncc(C(=O)OCC)c(Nc3ccc(N(C)C)cc3)c2c1` | N | N | N |
| `Cc1cc(N2CCC(C(=O)O)(n3cnc4ccccc43)CC2)nc(N)n1` | N | N | N |
| `CCNc1nc(N)c(C(=O)OC)s1` | N | N | N |

The last 3 entries again:

SMILES,PreQ1,SAM-II,TPP
CCOC(=O)c1ccc2ncc(C(=O)OCC)c(Nc3ccc(N(C)C)cc3)c2c1,N,N,N
Cc1cc(N2CCC(C(=O)O)(n3cnc4ccccc43)CC2)nc(N)n1,N,N,N
CCNc1nc(N)c(C(=O)OC)s1,N,N,N

Data from the ROBIN nucleic acid binder screens, doi:10.1002/anie.202211358.